From PubChem BioAssay AID256 (DTP/NCI, 2004)
The list is a part of this screen's results and no random one: it gathers tests that were run many times, whatever their T/C, doses with no T/C, and many T/C values between a quarter and a half above the control. Further doses and runs are listed elsewhere. T/C: endpoint of the treated group in % of that of the vehicle group. Some entries give survivors of the animals treated and no T/C: the source files T/C as zero there, which appears to mark a toxic dose or a test without result, not a measured value. Some survivor counts are full or nearly so, which does not show that the dose was tolerated: survival well below the control is almost never listed, so the zero probably covers shortened survival too. Survivors were counted at the toxicity check, usually on the fifth day, unless a day is given; later deaths do not show. Schedules are NCI's codes, taken here to give the interval after Q, in days (D) or hours (H), and the number of doses after X. Some entries hold several experiments; the values are given in rising order. Where survival is the endpoint, this PubChem deposit counts one and a half times the control or more as active, and values a quarter to a half above the control carry no call in these data; other NCI protocols may use other cut-offs. Some T/C values are followed by the survivors on the day toxicity was checked, most often the fifth; without a count, all were alive then.

System: CD2F1 mice, L1210 leukemia ip, survival T/C
Experiment: NCI In Vivo Anticancer Drug Screen. Data for tumor model L1210 Leukemia (intraperitoneal) in CD2F1 (CDF1) mice
Details: higher T/C = longer survival
Procedure, shortened: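 Each value reflects a quotient of treated over vehicle control outcomes in mice with a transplanted tumor.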

O=S1(=O)CS(=O)(=O)OCCO1
T/C (T/C endpoint: median survival time, dose: 6.25 mg/kg/injection, schedule: Q01DX009 (ip), vehicle: Klucel (hydroxypropylcellulose) (HPC)): 136, 137, 160, 178, 179 % of control | T/C (T/C endpoint: median survival time, dose: 12.5 mg/kg/injection, schedule: Q01DX009 (ip), vehicle: Klucel (hydroxypropylcellulose) (HPC)): 145, 182, 194, 208, 238 % of control | T/C (T/C endpoint: median survival time, dose: 12.5 mg/kg/injection, schedule: Q01DX009 (oral), vehicle: Klucel (hydroxypropylcellulose) (HPC)): 128 % of control | T/C (T/C endpoint: median survival time, dose: 22.0 mg/kg/injection, schedule: Q01DX005 (oral), vehicle: Klucel (hydroxypropylcellulose) (HPC)): 138 % of control | T/C (T/C endpoint: median survival time, dose: 25.0 mg/kg/injection, schedule: Q01DX009 (ip), vehicle: Klucel (hydroxypropylcellulose) (HPC)): 202, 213, 283, 337, 361 % of control | T/C (T/C endpoint: median survival time, dose: 25.0 mg/kg/injection, schedule: Q01DX009 (oral), vehicle: Klucel (hydroxypropylcellulose) (HPC)): 144 % of control | T/C (T/C endpoint: median survival time, dose: 49.5 mg/kg/injection, schedule: Q01DX005 (oral), vehicle: Klucel (hydroxypropylcellulose) (HPC)): 137 % of control [7 of 10 alive] | T/C (T/C endpoint: median survival time, dose: 49.5 mg/kg/injection, schedule: Q06HX002 (oral), vehicle: Klucel (hydroxypropylcellulose) (HPC)): 130 % of control | T/C (T/C endpoint: median survival time, dose: 50.0 mg/kg/injection, schedule: Q01DX009 (ip), vehicle: Klucel (hydroxypropylcellulose) (HPC)): 127, 190, 259, 337, 361 % of control | T/C (T/C endpoint: median survival time, dose: 74.2 mg/kg/injection, schedule: Q01DX001 (oral), vehicle: Klucel (hydroxypropylcellulose) (HPC)): 126 % of control | T/C (T/C endpoint: median survival time, dose: 74.2 mg/kg/injection, schedule: Q06HX002 (oral), vehicle: Klucel (hydroxypropylcellulose) (HPC)): 137 % of control | survivor count (T/C endpoint: median survival time, dose: 100.0 mg/kg/injection, schedule: Q01DX009 (ip), vehicle: Klucel (hydroxypropylcellulose) (HPC)): 0 of 6, 3 of 6, 5 of 6 | survivor count (T/C endpoint: median survival time, dose: 100.0 mg/kg/injection, schedule: Q01DX009 (oral), vehicle: Klucel (hydroxypropylcellulose) (HPC)): 3 of 10 | T/C (T/C endpoint: median survival time, dose: 111.2 mg/kg/injection, schedule: Q01DX001 (oral), vehicle: Klucel (hydroxypropylcellulose) (HPC)): 138 % of control | T/C (T/C endpoint: median survival time, dose: 111.2 mg/kg/injection, schedule: Q06HX002 (oral), vehicle: Klucel (hydroxypropylcellulose) (HPC)): 147 % of control | T/C (T/C endpoint: median survival time, dose: 166.8 mg/kg/injection, schedule: Q06HX002 (oral), vehicle: Klucel (hydroxypropylcellulose) (HPC)): 146 % of control | survivor count (T/C endpoint: median survival time, dose: 200.0 mg/kg/injection, schedule: Q01DX009 (oral), vehicle: Klucel (hydroxypropylcellulose) (HPC)): 0 of 10 | survivor count (T/C endpoint: median survival time, dose: 225.0 mg/kg/injection, schedule: Q01DX001 (oral), vehicle: Klucel (hydroxypropylcellulose) (HPC)): 3 of 10 | survivor count (T/C endpoint: median survival time, dose: 400.0 mg/kg/injection, schedule: Q01DX009 (oral), vehicle: Klucel (hydroxypropylcellulose) (HPC)): 0 of 10 | survivor count (T/C endpoint: median survival time, dose: 450.0 mg/kg/injection, schedule: Q01DX001 (oral), vehicle: Klucel (hydroxypropylcellulose) (HPC)): 0 of 10 | survivor count (T/C endpoint: median survival time, dose: 900.0 mg/kg/injection, schedule: Q01DX001 (oral), vehicle: Klucel (hydroxypropylcellulose) (HPC)): 0 of 10 | survivor count (T/C endpoint: median survival time, dose: 1800.0 mg/kg/injection, schedule: Q01DX001 (oral), vehicle: Klucel (hydroxypropylcellulose) (HPC)): 0 of 10

[I][Pt+2][I].[NH-]c1ccc(F)cc1.[NH-]c1ccc(F)cc1
survivor count (T/C endpoint: mean survival time, dose: 200.0 mg/kg/injection, schedule: Q04DX003 (ip), vehicle: distilled water + Tween-80): 2 of 6

CCCCC(CCC)(CCN)CCCC
survivor count (T/C endpoint: mean survival time, dose: 25.0 mg/kg/injection, schedule: Q04DX003 (ip), vehicle: saline): 0 of 6 | survivor count (T/C endpoint: mean survival time, dose: 50.0 mg/kg/injection, schedule: Q04DX003 (ip), vehicle: saline): 0 of 6

NC(COC(c1ccccc1)(c1ccccc1)c1ccccc1)C(=O)O (stereo not given)
T/C (T/C endpoint: mean survival time, dose: 100.0 mg/kg/injection, schedule: Q01DX009 (ip), vehicle: saline): 133 % of control

COc1cccc2c1C(=N)c1c(O)c3c(c(O)c1C2=O)C[C@@](O)(C(C)=O)C[C@@H]3OC1CC(N)C(O)C(C)O1 (stereo not given in full)
T/C (T/C endpoint: mean survival time, dose: 1.0 mg/kg/injection, schedule: Q01DX009 (ip), vehicle: saline): 128 % of control | T/C (T/C endpoint: mean survival time, dose: 8.0 mg/kg/injection, schedule: Q01DX009 (ip), vehicle: saline): 138 % of control | survivor count (T/C endpoint: mean survival time, dose: 16.0 mg/kg/injection, schedule: Q01DX009 (ip), vehicle: saline): 5 of 6 and 6 of 6

O=[N+]([O-])/C=C\c1cc2c3c(c1)CCCN3CCC2
survivor count (T/C endpoint: mean survival time, dose: 50.0 mg/kg/injection, schedule: Q01DX001 (ip), vehicle: saline with Tween-80): 1 of 6 | survivor count (T/C endpoint: mean survival time, dose: 100.0 mg/kg/injection, schedule: Q01DX001 (ip), vehicle: saline with Tween-80): 0 of 6 | survivor count (T/C endpoint: mean survival time, dose: 200.0 mg/kg/injection, schedule: Q01DX001 (ip), vehicle: saline with Tween-80): 0 of 6 and 1 of 6 | survivor count (T/C endpoint: mean survival time, dose: 400.0 mg/kg/injection, schedule: Q01DX001 (ip), vehicle: saline with Tween-80): 0 of 6 and 1 of 6

COc1cc2c3cc1Oc1c(OC)c(OC)cc4c1[C@@H](Cc1ccc(O)c(c1)Oc1ccc(cc1)C[C@@H]3N(C)CC2)N(C)CC4
survivor count (T/C endpoint: mean survival time, dose: 300.0 mg/kg/injection, schedule: Q01DX001 (ip), vehicle: other): 1 of 6

CCCC[P+](CCCC)(CCCC)Cc1ccc([N+](=O)[O-])cc1
survivor count (T/C endpoint: mean survival time, dose: 100.0 mg/kg/injection, schedule: Q01DX001 (ip), vehicle: Klucel (hydroxypropylcellulose) (HPC)): 0 of 6 | survivor count (T/C endpoint: mean survival time, dose: 100.0 mg/kg/injection, schedule: Q01DX009 (ip), vehicle: Klucel (hydroxypropylcellulose) (HPC)): 1 of 6 | survivor count (T/C endpoint: mean survival time, dose: 100.0 mg/kg/injection, schedule: Q04DX002 (ip), vehicle: Klucel (hydroxypropylcellulose) (HPC)): 5 of 6 | survivor count (T/C endpoint: mean survival time, dose: 100.0 mg/kg/injection, schedule: Q04DX003 (ip), vehicle: Klucel (hydroxypropylcellulose) (HPC)): 3 of 6 | survivor count (T/C endpoint: mean survival time, dose: 200.0 mg/kg/injection, schedule: Q01DX001 (ip), vehicle: Klucel (hydroxypropylcellulose) (HPC)): 0 of 6 | survivor count (T/C endpoint: mean survival time, dose: 200.0 mg/kg/injection, schedule: Q04DX002 (ip), vehicle: Klucel (hydroxypropylcellulose) (HPC)): 0 of 6 | survivor count (T/C endpoint: mean survival time, dose: 200.0 mg/kg/injection, schedule: Q04DX003 (ip), vehicle: Klucel (hydroxypropylcellulose) (HPC)): 1 of 6 | survivor count (T/C endpoint: mean survival time, dose: 400.0 mg/kg/injection, schedule: Q01DX001 (ip), vehicle: Klucel (hydroxypropylcellulose) (HPC)): 0 of 6 | survivor count (T/C endpoint: mean survival time, dose: 400.0 mg/kg/injection, schedule: Q04DX002 (ip), vehicle: Klucel (hydroxypropylcellulose) (HPC)): 0 of 6

O=C1C=C2C(=CCOC2O)O1 (stereo not given)
survivor count (T/C endpoint: mean survival time, dose: 0.25 mg/kg/injection, schedule: Q01DX009 (ip), vehicle: Klucel (hydroxypropylcellulose) (HPC)): 6 of 6 | survivor count (T/C endpoint: mean survival time, dose: 8.0 mg/kg/injection, schedule: Q01DX009 (ip), vehicle: Klucel (hydroxypropylcellulose) (HPC)): 0 of 6 and 1 of 6 | survivor count (T/C endpoint: mean survival time, dose: 12.0 mg/kg/injection, schedule: Q01DX009 (ip), vehicle: Klucel (hydroxypropylcellulose) (HPC)): 0 of 6

CN(C)[C@@H]1C(=O)C(C(=O)NCNC(Cc2ccc(N(CCCl)CCCl)cc2)C(=O)O)=C(O)[C@@]2(O)C(=O)C3=C(O)c4c(O)cccc4[C@@](C)(O)[C@H]3C[C@@H]12 (stereo not given in full)
survivor count (T/C endpoint: mean survival time, dose: 200.0 mg/kg/injection, schedule: Q01DX001 (ip), vehicle: other): 2 of 4 | survivor count (T/C endpoint: mean survival time, dose: 400.0 mg/kg/injection, schedule: Q01DX001 (ip), vehicle: other): 1 of 4

COc1ccc(OC)c(OC)c1CC(C)N (stereo not given)
survivor count (T/C endpoint: mean survival time, dose: 200.0 mg/kg/injection, schedule: Q04DX002 (ip), vehicle: saline): 0 of 3 | survivor count (T/C endpoint: mean survival time, dose: 400.0 mg/kg/injection, schedule: Q04DX002 (ip), vehicle: saline): 0 of 3

CCOC(=O)Nc1cc2c(c(N)n1)N=C(c1ccc3ccccc3c1)CN2
T/C (T/C endpoint: median survival time, dose: 2.0 mg/kg/injection, schedule: Q01DX009 (ip), vehicle: saline with Tween-80): 127 % of control | T/C (T/C endpoint: median survival time, dose: 4.0 mg/kg/injection, schedule: Q01DX009 (ip), vehicle: saline with Tween-80): 135 % of control | T/C (T/C endpoint: median survival time, dose: 7.5 mg/kg/injection, schedule: Q01DX009 (ip), vehicle: saline with Tween-80): 136 % of control | T/C (T/C endpoint: median survival time, dose: 8.0 mg/kg/injection, schedule: Q01DX009 (ip), vehicle: saline with Tween-80): 148 % of control

O=[Te]=O
survivor count (T/C endpoint: median survival time, dose: 40.0 mg/kg/injection, schedule: Q01DX009 (ip), vehicle: saline): 2 of 6
